# Data published in the supplement of paper PMC10849652.
# Sequences of proteins named here, by UniProt entry; tags and fusion partners are left off. A change or cut given only in a name is not applied to a line headed by its entry.
# UniProt Q9BRF8, whole entry, looked up: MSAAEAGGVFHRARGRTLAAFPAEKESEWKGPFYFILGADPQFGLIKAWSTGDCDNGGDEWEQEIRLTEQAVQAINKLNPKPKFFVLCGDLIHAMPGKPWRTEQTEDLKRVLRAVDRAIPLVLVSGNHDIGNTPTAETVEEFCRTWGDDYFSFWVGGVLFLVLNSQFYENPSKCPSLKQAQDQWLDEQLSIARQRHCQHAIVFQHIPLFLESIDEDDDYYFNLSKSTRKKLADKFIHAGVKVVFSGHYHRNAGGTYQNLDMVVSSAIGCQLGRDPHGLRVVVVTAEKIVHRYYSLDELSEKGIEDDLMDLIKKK
# UniProt Q96KP4: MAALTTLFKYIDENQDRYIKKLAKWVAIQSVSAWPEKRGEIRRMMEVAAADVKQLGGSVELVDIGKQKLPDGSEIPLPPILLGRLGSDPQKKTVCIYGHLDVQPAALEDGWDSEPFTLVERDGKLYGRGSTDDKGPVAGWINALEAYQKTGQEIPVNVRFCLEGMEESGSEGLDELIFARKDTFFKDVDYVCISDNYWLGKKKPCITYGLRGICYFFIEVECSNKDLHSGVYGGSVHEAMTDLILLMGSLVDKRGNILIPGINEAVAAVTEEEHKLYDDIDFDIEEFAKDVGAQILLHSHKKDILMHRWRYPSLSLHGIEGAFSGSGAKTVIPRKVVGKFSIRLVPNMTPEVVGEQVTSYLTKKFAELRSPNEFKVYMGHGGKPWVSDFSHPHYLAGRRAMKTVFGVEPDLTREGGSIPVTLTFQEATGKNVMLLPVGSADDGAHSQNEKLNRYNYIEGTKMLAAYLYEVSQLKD
# UniProt Q5RI15: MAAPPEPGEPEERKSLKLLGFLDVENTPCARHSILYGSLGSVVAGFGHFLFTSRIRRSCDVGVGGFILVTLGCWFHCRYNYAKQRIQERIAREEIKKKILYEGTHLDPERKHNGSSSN
# UniProt Q10570: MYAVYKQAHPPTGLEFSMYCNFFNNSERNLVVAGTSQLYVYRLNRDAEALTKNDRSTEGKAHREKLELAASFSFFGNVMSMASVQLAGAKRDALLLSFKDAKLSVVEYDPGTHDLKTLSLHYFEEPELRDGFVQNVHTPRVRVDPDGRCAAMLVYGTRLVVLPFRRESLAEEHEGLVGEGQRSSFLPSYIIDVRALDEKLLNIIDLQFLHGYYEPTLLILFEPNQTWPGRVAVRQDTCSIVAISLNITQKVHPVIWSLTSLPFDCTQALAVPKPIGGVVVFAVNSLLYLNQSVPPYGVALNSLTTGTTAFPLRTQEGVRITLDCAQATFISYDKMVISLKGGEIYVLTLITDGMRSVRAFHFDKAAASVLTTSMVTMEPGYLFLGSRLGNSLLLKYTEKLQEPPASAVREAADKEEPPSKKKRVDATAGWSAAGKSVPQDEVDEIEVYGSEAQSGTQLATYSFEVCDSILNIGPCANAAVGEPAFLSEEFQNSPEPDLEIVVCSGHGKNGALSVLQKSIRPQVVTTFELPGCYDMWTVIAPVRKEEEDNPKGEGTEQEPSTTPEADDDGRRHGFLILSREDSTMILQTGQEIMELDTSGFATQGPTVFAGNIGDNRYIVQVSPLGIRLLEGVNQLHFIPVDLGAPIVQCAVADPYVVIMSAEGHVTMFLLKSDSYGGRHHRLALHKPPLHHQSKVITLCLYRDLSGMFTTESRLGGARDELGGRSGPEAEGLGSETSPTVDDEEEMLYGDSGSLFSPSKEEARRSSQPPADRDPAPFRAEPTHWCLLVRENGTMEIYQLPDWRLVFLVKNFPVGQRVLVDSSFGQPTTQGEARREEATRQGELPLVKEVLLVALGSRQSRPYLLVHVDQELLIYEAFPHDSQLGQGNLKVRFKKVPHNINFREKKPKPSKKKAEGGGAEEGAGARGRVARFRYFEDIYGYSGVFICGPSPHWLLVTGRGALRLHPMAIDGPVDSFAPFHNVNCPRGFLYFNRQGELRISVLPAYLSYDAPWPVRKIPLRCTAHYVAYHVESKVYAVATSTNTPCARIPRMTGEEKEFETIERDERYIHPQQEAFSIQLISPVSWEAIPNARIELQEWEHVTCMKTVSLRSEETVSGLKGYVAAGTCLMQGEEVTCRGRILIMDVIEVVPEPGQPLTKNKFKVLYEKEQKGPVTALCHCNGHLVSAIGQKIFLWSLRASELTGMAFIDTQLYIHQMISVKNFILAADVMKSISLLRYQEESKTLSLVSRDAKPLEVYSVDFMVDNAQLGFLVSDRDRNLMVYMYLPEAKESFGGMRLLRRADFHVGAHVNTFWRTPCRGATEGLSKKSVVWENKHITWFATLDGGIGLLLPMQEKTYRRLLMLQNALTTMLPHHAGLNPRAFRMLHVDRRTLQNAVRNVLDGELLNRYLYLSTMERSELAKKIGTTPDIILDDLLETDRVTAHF
# UniProt P83436: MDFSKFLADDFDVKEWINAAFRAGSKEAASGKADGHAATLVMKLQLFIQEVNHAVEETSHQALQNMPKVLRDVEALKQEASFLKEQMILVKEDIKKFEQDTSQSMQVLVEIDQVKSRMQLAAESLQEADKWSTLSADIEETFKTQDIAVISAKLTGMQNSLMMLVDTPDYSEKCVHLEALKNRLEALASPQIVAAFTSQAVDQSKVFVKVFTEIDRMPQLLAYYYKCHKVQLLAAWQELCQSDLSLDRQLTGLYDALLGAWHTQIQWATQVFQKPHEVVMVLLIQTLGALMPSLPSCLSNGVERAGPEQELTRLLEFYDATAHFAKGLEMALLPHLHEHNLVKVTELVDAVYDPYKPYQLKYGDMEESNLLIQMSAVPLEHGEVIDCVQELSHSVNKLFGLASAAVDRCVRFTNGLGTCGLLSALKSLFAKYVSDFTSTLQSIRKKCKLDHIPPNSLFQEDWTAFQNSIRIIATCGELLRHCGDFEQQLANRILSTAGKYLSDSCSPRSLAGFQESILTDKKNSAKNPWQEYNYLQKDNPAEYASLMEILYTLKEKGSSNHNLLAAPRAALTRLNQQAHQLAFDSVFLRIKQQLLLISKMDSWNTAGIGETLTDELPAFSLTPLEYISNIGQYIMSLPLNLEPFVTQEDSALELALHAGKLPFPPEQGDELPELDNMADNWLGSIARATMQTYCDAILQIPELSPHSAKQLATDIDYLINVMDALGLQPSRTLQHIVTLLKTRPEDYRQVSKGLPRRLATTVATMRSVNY
# UniProt Q86VU5: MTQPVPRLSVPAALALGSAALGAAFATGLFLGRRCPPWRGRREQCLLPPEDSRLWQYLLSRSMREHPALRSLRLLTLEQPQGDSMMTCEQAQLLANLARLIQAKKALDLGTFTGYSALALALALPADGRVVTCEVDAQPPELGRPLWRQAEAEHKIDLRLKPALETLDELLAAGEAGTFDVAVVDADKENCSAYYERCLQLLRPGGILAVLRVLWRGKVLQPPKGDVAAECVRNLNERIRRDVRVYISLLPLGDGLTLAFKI
# UniProt Q92905, whole entry, looked up: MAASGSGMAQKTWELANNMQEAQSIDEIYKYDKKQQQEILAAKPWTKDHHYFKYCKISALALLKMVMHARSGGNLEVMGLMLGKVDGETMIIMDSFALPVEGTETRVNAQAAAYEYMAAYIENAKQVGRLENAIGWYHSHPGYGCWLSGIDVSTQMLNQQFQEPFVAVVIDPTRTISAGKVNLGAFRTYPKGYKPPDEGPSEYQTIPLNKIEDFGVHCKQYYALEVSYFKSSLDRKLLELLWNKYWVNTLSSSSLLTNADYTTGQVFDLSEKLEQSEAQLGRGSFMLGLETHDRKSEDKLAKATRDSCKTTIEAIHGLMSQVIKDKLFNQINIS
# UniProt P12074, whole entry, looked up: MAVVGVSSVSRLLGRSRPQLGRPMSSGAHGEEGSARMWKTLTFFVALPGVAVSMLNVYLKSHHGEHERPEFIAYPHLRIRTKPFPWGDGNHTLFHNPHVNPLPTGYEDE
# UniProt Q9Y6G5, whole entry, looked up: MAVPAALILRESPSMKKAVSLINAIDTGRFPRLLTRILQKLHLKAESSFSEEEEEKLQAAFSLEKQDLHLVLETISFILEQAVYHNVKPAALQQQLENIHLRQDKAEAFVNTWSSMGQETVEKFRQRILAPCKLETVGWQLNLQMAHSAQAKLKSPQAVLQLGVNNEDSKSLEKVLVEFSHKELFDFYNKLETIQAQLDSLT
# UniProt P51911: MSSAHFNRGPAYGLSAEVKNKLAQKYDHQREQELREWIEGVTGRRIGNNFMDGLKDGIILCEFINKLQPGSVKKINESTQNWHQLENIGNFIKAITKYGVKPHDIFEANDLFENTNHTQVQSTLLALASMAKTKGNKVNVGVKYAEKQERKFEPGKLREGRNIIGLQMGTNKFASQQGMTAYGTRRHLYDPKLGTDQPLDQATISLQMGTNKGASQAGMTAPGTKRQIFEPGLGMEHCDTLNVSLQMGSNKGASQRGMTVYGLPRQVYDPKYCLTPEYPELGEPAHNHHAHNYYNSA
# UniProt O95628: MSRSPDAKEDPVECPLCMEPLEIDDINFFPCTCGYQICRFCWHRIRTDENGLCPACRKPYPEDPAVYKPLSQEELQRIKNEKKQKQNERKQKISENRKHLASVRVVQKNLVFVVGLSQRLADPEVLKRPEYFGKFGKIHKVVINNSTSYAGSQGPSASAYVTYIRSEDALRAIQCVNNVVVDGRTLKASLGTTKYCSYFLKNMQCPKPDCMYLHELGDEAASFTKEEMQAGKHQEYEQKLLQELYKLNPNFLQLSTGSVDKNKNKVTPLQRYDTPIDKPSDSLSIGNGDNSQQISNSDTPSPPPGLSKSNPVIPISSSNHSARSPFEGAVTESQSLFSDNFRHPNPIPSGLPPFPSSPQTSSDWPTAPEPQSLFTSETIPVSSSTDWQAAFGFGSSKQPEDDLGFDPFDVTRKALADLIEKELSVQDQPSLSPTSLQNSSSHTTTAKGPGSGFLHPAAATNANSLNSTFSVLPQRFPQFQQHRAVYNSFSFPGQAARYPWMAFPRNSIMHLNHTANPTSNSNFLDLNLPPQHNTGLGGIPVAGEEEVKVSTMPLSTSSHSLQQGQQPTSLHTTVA
# UniProt Q8N668, whole entry, looked up: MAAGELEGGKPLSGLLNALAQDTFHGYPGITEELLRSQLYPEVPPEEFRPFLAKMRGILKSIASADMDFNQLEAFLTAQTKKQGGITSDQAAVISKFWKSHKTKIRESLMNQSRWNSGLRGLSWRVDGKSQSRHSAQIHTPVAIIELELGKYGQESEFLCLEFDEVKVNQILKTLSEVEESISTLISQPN
# UniProt Q99439: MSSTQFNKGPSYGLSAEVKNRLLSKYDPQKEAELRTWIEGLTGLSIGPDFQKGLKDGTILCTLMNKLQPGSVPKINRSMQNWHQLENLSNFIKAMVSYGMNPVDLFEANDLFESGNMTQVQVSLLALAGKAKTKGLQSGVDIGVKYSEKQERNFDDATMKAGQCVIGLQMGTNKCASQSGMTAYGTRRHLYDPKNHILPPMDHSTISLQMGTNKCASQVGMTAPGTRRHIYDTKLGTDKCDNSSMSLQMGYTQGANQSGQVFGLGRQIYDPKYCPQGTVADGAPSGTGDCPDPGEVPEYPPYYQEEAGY
# UniProt Q9H9A5, whole entry, looked up: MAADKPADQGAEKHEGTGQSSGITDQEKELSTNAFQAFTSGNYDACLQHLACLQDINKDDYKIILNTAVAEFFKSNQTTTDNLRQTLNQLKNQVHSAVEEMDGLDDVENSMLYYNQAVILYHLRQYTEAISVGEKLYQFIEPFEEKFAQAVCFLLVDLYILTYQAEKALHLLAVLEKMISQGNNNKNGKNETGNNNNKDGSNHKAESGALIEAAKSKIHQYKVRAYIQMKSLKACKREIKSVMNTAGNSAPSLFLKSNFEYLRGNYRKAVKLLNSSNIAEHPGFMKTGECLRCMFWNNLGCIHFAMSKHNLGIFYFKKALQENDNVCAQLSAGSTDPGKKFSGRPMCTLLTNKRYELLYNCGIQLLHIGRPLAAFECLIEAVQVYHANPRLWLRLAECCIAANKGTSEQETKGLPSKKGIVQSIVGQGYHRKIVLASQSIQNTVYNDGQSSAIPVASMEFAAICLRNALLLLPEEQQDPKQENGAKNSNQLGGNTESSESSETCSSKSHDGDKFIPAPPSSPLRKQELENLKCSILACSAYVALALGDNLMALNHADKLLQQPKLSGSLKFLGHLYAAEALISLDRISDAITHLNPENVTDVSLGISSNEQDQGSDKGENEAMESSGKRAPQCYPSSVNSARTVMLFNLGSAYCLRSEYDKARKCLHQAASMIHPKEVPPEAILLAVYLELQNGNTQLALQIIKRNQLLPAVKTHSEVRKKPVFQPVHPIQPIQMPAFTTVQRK
# UniProt Q8N8Q8: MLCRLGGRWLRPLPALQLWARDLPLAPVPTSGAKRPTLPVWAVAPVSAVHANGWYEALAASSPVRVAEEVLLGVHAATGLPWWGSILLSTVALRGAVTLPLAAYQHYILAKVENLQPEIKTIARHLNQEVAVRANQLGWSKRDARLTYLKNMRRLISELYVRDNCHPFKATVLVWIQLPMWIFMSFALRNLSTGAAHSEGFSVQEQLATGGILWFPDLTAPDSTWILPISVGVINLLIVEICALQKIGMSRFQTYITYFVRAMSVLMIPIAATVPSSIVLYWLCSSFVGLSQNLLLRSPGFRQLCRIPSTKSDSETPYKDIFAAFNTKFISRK
# The other results are listed elsewhere or left out.
# Legend:
# Test in all cases: log2 fold change, soluble protein after heating vs DMSO (PISA); higher = thermal stabilisation; K562 lysate, 10 uM; active = over 0.2 and 3.5 SD of the protein, either way, in both replicates (recomputed)
# [1] = compound: C#Cc1cccc(Nc2ncnc3cc(OCCOC)c(OCCOC)cc23)c1 [erlotinib]
# Method in brief: (§1)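 Thermal stability, expressed as log-two fold change relative to solvent controls, is given from duplicates. Crude K562 extract in PBS pH 7.4 with 1 mM MgCl2, at 1 mg/mL protein, was treated with 10 μM compound for 30 min and heated in aliquots for 3 min across 48°C-58°C. After pooling, adjustment to 0.5% NP-40 at 4°C and centrifugation at 21,000xg for 90 min, supernatant protein was measured by TMTpro 16plex LC-MS/MS with channel sums equalised.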
# [2] = compound: C/C(=N\NC(=O)C1=CC(=CC=C1)S(=O)(=O)N2CCOCC2)/C3=C(C=CC(=C3)Cl)O
# Method in brief: as §1
# [3] = compound: C1=CC(=CC=C1C2=NC3=C(N2)C=C(C=C3)C(=O)N)OC4=CC=C(C=C4)Cl
# Method in brief: as §1
# [4] = compound: C1=CC2=C(C=CC(=C2)/C=C\3/C(=O)NC(=NCC4=CC=CS4)S3)N=C1
# Method in brief: as §1
# [5] = compound: C1=CC2=NC=CN=C2C=C1/C=C/3\C(=O)NC(=O)S3
# Method in brief: as §1
# [6] = compound: C1=CC=C(C=C1)C2=NC(=C(N2)C3=CC=NC=C3)C4=CC(=C(C=C4)Cl)O
# Method in brief: as §1
# [7] = compound: C1=CC=C2C(=C1)C3=NNC4=CC=CC(=C43)C2=O
# Method in brief: as §1
# [8] = compound: C1CCN(C1)C(=O)NC2=CC=CC(=C2)NC3=NC=C(C(=N3)NCCC4=CN=CN4)Br
# Method in brief: as §1
# [9] = compound: C1CN(CCC1(CC2=CC=C(C=C2)Cl)N)C3=NC=NC4=C3C=CN4
# Method in brief: as §1
# [10] = compound: C1COCCN1CCN2C3=CC=CC=C3N=C2NC(=O)C4=CC(=CC=C4)[N+](=O)[O-] [IRAK-1-4 Inhibitor I]
# Method in brief: as §1
# [11] = compound: C=CC(=O)N1CCC[C@@H](n2nc(-c3ccc(Oc4ccccc4)cc3)c3c(N)ncnc32)C1 [ibrutinib]
# Method in brief: as §1
# [12] = compound: CC(=O)c1cnc2ccc(-c3cc(Cl)c(O)c(Cl)c3)nc2c1N[C@H]1CC[C@H](CN(C)C)CC1
# Method in brief: as §1
# [13] = compound: CC(C)(C)Cn1c(N)nc2ccc(-c3[nH]c(C(C)(C)C)nc3-c3ccc(F)cc3)nc21 [ralimetinib]
# Method in brief: as §1
# [14] = compound: CC(C)(O)CC(=O)NCCn1ccc2ncnc(Nc3ccc(Oc4cccc(C(F)(F)F)c4)c(Cl)c3)c21
# Method in brief: as §1
# [15] = compound: CC(C)C1=C2N=C(C=C(N2N=C1)NCC3=CC=CC=C3)NCCCCCCN
# Method in brief: as §1
# [16] = compound: CC1=C(C(CC(=O)N1)C2=CC=C(C=C2)C(F)(F)F)C(=O)NC3=C(C=C4C(=C3)C=NN4)F
# Method in brief: as §1
# [17] = compound: CC1=C(C2=C(C=C1)C(=O)C3=CC=CC=C3N2CCCN)C
# Method in brief: as §1
# [18] = compound: CC1=C(C=C(C=C1)NC(=O)C2=CC(=CC=C2)C(C)(C)C#N)NC3=CC4=C(C=C3)N=CN(C4=O)C
# Method in brief: as §1
# [19] = compound: CC1=C(C=C(C=C1)NC(=O)C2=CC(=CC=C2)N(C)C)NC(=O)C3=CC=C(C=C3)O
# Method in brief: as §1
# [20] = compound: CC1=CC=C(C=C1)SC2=C3C=C(SC3=CN=C2)C(=O)N
# Method in brief: as §1
Target,log2 fold change [1],log2 fold change [2],log2 fold change [3],log2 fold change [4],log2 fold change [5],log2 fold change [6],log2 fold change [7],log2 fold change [8],log2 fold change [9],log2 fold change [10],log2 fold change [11],log2 fold change [12],log2 fold change [13],log2 fold change [14],log2 fold change [15],log2 fold change [16],log2 fold change [17],log2 fold change [18],log2 fold change [19],log2 fold change [20]
CPPED1 (UniProt Q9BRF8),inactive: -0.046,inactive: 0.021,inactive: 0,inactive: 0.012,inactive: 0.011,inactive: -0.024,inactive: 0.019,inactive: -0.016,inactive: -0.007,inactive: 0.004,inactive: 0.007,inactive: -0.013,inactive: 0.014,inactive: -0.04,inactive: -0.006,inactive: -0.016,inactive: -0.023,inactive: 0.016,inactive: 0.022,inactive: -0.001
CNDP2 (UniProt Q96KP4),inactive: -0.016,inactive: 0.004,inactive: 0.02,inactive: -0.038,inactive: -0.009,inactive: -0.022,inactive: 0.007,inactive: 0.039,inactive: 0.041,inactive: 0.051,inactive: 0.013,inactive: -0.027,inactive: 0.024,inactive: -0.049,inactive: -0.011,inactive: -0.005,inactive: -0.02,inactive: 0.023,inactive: 0,inactive: -0.035
COX20 isoform 2 (UniProt Q5RI15),inactive: 0.022,inactive: 0.004,inactive: -0.018,inactive: -0.001,inactive: -0.129,inactive: 0.016,inactive: -0.036,inactive: -0.09,inactive: 0.034,inactive: 0.048,inactive: 0.28,inactive: 0.017,inactive: 0.084,inactive: 0.032,inactive: -0.003,inactive: -0.007,inactive: -0.04,inactive: 0.003,inactive: 0.001,inactive: -0.023
CPSF1 (UniProt Q10570),inactive: 0.018,inactive: 0.009,inactive: 0.034,inactive: -0.01,inactive: -0.037,inactive: 0.013,inactive: -0.03,inactive: -0.007,inactive: 0.015,inactive: -0.009,inactive: 0.01,inactive: 0.006,inactive: -0.011,inactive: -0.013,inactive: -0.013,inactive: 0.034,inactive: -0.005,inactive: -0.062,inactive: 0.022,inactive: 0.017
COG7 (UniProt P83436),inactive: 0.026,inactive: -0.007,inactive: -0.025,inactive: 0.034,inactive: 0.012,inactive: 0.006,inactive: -0.037,inactive: -0.022,inactive: 0.05,inactive: -0.039,inactive: -0.04,inactive: -0.012,inactive: 0.03,inactive: 0.006,inactive: -0.049,inactive: -0.034,inactive: -0.001,inactive: -0.029,inactive: 0.058,inactive: -0.007
COMTD1 (UniProt Q86VU5),inactive: 0.145,inactive: 0.024,inactive: -0.076,inactive: 0.044,inactive: 0.021,inactive: -0.008,inactive: 0.026,inactive: -0.022,inactive: 0.048,inactive: -0.038,inactive: 0.008,inactive: 0.07,inactive: -0.06,inactive: -0.088,inactive: -0.1,inactive: -0.055,inactive: 0.002,inactive: 0.057,inactive: 0.062,inactive: 0.014
COPS5 (UniProt Q92905),inactive: 0.003,inactive: -0.007,inactive: -0.007,inactive: -0.005,inactive: 0,inactive: -0.006,inactive: 0.029,inactive: -0.005,inactive: -0.016,inactive: 0.011,inactive: 0.029,inactive: -0.003,inactive: 0,inactive: -0.064,inactive: 0.024,inactive: -0.018,inactive: -0.007,inactive: 0.015,inactive: -0.013,inactive: 0.022
CPOX (UniProt P36551),inactive: -0.017,inactive: 0.003,inactive: -0.005,inactive: -0.013,inactive: 0,inactive: 0.029,inactive: 0.041,inactive: -0.011,inactive: 0.018,inactive: 0.052,inactive: -0.02,inactive: 0.095,inactive: 0.003,inactive: -0.058,inactive: -0.005,inactive: 0.008,inactive: -0.01,inactive: 0.012,inactive: 0.007,inactive: 0
COX6A1 (UniProt P12074),inactive: -0.042,inactive: 0.032,inactive: 0.075,inactive: -0.017,inactive: -0.037,inactive: -0.021,inactive: 0.065,inactive: 0.011,inactive: 0.028,inactive: -0.023,inactive: -0.023,inactive: -0.075,inactive: -0.002,inactive: -0.004,inactive: -0.033,inactive: 0.01,inactive: -0.063,inactive: 0.05,inactive: 0.019,inactive: 0.171
COMMD10 (UniProt Q9Y6G5),inactive: 0.026,inactive: -0.018,inactive: 0.008,inactive: 0.009,inactive: -0.012,inactive: -0.032,inactive: -0.025,inactive: 0.037,inactive: -0.01,inactive: -0.036,inactive: 0.055,inactive: -0.009,inactive: 0.021,inactive: 0.014,inactive: -0.003,inactive: -0.007,inactive: 0.052,inactive: -0.029,inactive: -0.006,inactive: 0.021
CNN1 (UniProt P51911),inactive: 0.018,inactive: -0.011,inactive: 0.063,inactive: 0.126,inactive: -0.047,inactive: 0.009,inactive: -0.05,inactive: -0.079,inactive: -0.031,inactive: -0.064,inactive: 0.006,inactive: -0.055,inactive: 0.076,inactive: 0.068,inactive: 0.015,inactive: 0.029,inactive: 0.037,inactive: 0.01,inactive: -0.002,inactive: 0.004
CNOT4 isoform 6 (UniProt O95628),inactive: -0.025,inactive: -0.016,inactive: 0.005,inactive: 0.017,inactive: 0.009,inactive: -0.035,inactive: 0.043,inactive: -0.032,inactive: -0.013,inactive: 0.041,inactive: -0.004,inactive: 0.021,inactive: 0.033,inactive: -0.007,inactive: -0.003,inactive: 0.049,inactive: 0.037,active: -0.281,inactive: -0.026,inactive: 0.012
COMMD1 (UniProt Q8N668),inactive: 0.029,inactive: 0.025,inactive: -0.031,inactive: 0.032,inactive: -0.053,inactive: -0.057,inactive: -0.021,inactive: 0.047,inactive: 0.023,inactive: 0.008,inactive: -0.118,inactive: 0.025,inactive: 0.018,inactive: -0.05,inactive: 0.003,inactive: 0.058,inactive: -0.025,inactive: -0.018,inactive: -0.002,inactive: -0.024
CNN2 (UniProt Q99439),inactive: -0.004,inactive: 0.017,inactive: 0.044,inactive: -0.046,inactive: 0.001,inactive: 0.036,inactive: 0.017,inactive: 0.029,inactive: 0.018,inactive: -0.007,inactive: -0.005,inactive: 0,inactive: -0.038,inactive: 0.014,inactive: 0.017,inactive: 0.011,inactive: 0.016,inactive: 0.007,inactive: -0.018,inactive: -0.024
CNOT10 (UniProt Q9H9A5),inactive: 0.005,inactive: -0.002,inactive: 0.007,inactive: 0.027,inactive: 0.013,inactive: -0.027,inactive: -0.018,inactive: -0.024,inactive: 0.045,inactive: 0.026,inactive: -0.003,inactive: -0.013,inactive: 0.012,inactive: -0.046,inactive: -0.021,inactive: 0.006,inactive: -0.025,inactive: 0.011,inactive: 0.038,inactive: -0.003
COX18 (UniProt Q8N8Q8),inactive: 0.019,inactive: 0.017,inactive: -0.152,inactive: 0.004,inactive: 0.024,inactive: -0.028,inactive: -0.036,inactive: 0.059,inactive: -0.035,inactive: 0.009,inactive: -0.004,inactive: -0.037,inactive: 0.058,inactive: -0.035,inactive: -0.005,inactive: 0.072,inactive: 0.024,inactive: 0.064,inactive: -0.022,inactive: 0.001

# Complete entries as entered above. Values in the order: log2 fold change [1] | log2 fold change [2] | log2 fold change [3] | log2 fold change [4] | log2 fold change [5] | log2 fold change [6] | log2 fold change [7] | log2 fold change [8] | log2 fold change [9] | log2 fold change [10] | log2 fold change [11] | log2 fold change [12] | log2 fold change [13] | log2 fold change [14] | log2 fold change [15] | log2 fold change [16] | log2 fold change [17] | log2 fold change [18] | log2 fold change [19] | log2 fold change [20]
# COMMD10 (UniProt Q9Y6G5) is listed as inactive: 0.026 | inactive: -0.018 | inactive: 0.008 | inactive: 0.009 | inactive: -0.012 | inactive: -0.032 | inactive: -0.025 | inactive: 0.037 | inactive: -0.01 | inactive: -0.036 | inactive: 0.055 | inactive: -0.009 | inactive: 0.021 | inactive: 0.014 | inactive: -0.003 | inactive: -0.007 | inactive: 0.052 | inactive: -0.029 | inactive: -0.006 | inactive: 0.021
# COX6A1 (UniProt P12074) is listed as inactive: -0.042 | inactive: 0.032 | inactive: 0.075 | inactive: -0.017 | inactive: -0.037 | inactive: -0.021 | inactive: 0.065 | inactive: 0.011 | inactive: 0.028 | inactive: -0.023 | inactive: -0.023 | inactive: -0.075 | inactive: -0.002 | inactive: -0.004 | inactive: -0.033 | inactive: 0.01 | inactive: -0.063 | inactive: 0.05 | inactive: 0.019 | inactive: 0.171
